{
  "source": "paper doi:10.1101/2021.04.11.439330",
  "molecules": {"B1": {"name": "ephrin-A1 on the cell surface, GFP or mCherry inserted after the signal sequence, P20827 19-182 (ligand)", "chain": "DRHTVFWNSSNPKFRNEDYTIHVQLNDYVDIICPHYEDHSVADAAMEQYILYLVEHEEYQLCQPQSKDQVRWQCNRPSAKHGPEKLSEKFQRFTPFTLGKEFKEGHSYYYISKPIHQHEDRCLRLKVTVSGKITHSPQAHDNPQEKRLAADDPEVRVLHSIGHS"}},
  "key": {"[1]": {"molecular_target": "EphA2 D129N/G131S (LBD-LBD interface mutant) (UniProt P29317)", "test": "PIE-FCCS"}, "[2]": {"molecular_target": "EphA2 D129N/G131S (LBD-LBD interface mutant) (UniProt P29317)", "test": "PIE-FCCS", "remark": "listed apart in the source"}, "[3]": {"molecular_target": "EphA2 L223R/L254R/V255R (Sushi-Sushi interface mutant) (UniProt P29317)", "test": "PIE-FCCS"}, "[4]": {"molecular_target": "EphA2 LS compound mutant (LBD and Sushi interfaces disrupted) (UniProt P29317)", "test": "PIE-FCCS"}, "[5]": {"molecular_target": "EphA2 N483L/R485E (LBD-FN2 interface mutant) (UniProt P29317)", "test": "FRET or BRET"}, "[6]": {"molecular_target": "EphA2 N483L/R485E (LBD-FN2 interface mutant) (UniProt P29317)", "test": "FRET or BRET", "remark": "listed apart in the source"}, "[7]": {"molecular_target": "EphA2 N483L/R485E (LBD-FN2 interface mutant) (UniProt P29317)", "test": "PIE-FCCS"}, "[8]": {"molecular_target": "EphA2 P378E (FN1-FN1 interface mutant) (UniProt P29317)", "test": "PIE-FCCS"}, "[9]": {"molecular_target": "EphA2 receptor tyrosine kinase, wild type (UniProt P29317)", "test": "FRET or BRET"}, "[10]": {"molecular_target": "EphA2 receptor tyrosine kinase, wild type (UniProt P29317)", "test": "PIE-FCCS"}, "[11]": {"molecular_target": "EphA2 receptor tyrosine kinase, wild type (UniProt P29317)", "test": "PIE-FCCS", "remark": "listed apart in the source"}, "[12]": {"molecular_target": "EphA2 receptor tyrosine kinase, wild type (UniProt P29317)", "test": "PIE-FCCS", "remark": "listed apart in the source"}, "[13]": {"molecular_target": "EphA2 receptor tyrosine kinase, wild type (UniProt P29317)", "test": "PIE-FCCS", "remark": "listed apart in the source"}, "[14]": {"molecular_target": "EphA2 receptor tyrosine kinase, wild type (UniProt P29317)", "test": "PIE-FCCS", "remark": "listed apart in the source"}, "[15]": {"molecular_target": "T1, ephrin-A1 on the cell surface, GFP or mCherry inserted after the signal sequence, P20827", "T1 chain": "B1 chain", "test": "PIE-FCCS", "conditions": "remark: other sources report otherwise"}},
  "note": "Read-outs that look alike come from different tables or passages of the source. Results are given in words; binding and its absence hold for the method and conditions named. For some of these results: Binding seen in cells or lysates may run through a third protein. Some results given as binding are weak or reduced against the parent protein; the word gives no strength. For some of these results: Where a sequence is shown, tags or fusion partners need not be part of it.",
  "data": [
    {"molecule": "EphA2 D129N/G131S (LBD-LBD interface mutant) (from UniProt P29317 24-976) (receptor)", "values": [
      {"measurement": "binding", "setting": "[1]", "value": "binds"},
      {"measurement": "binding", "setting": "[2]", "value": "binds"}
    ]},
    {"molecule": "EphA2 L223R/L254R/V255R (Sushi-Sushi interface mutant) (from UniProt P29317 24-976) (receptor)", "values": [
      {"measurement": "binding", "setting": "[3]", "value": "binds"}
    ]},
    {"molecule": "EphA2 LS compound mutant (LBD and Sushi interfaces disrupted) (from UniProt P29317 24-976) (receptor)", "values": [
      {"measurement": "binding", "setting": "[4]", "value": "binds"}
    ]},
    {"molecule": "EphA2 N483L/R485E (LBD-FN2 interface mutant) (from UniProt P29317 24-976) (receptor)", "values": [
      {"measurement": "binding", "setting": "[5]", "value": "binds"},
      {"measurement": "binding", "setting": "[6]", "value": "binds"},
      {"measurement": "binding", "setting": "[7]", "value": "binds"}
    ]},
    {"molecule": "EphA2 P378E (FN1-FN1 interface mutant) (from UniProt P29317 24-976) (receptor)", "values": [
      {"measurement": "binding", "setting": "[8]", "value": "binds"}
    ]},
    {"molecule": "EphA2 receptor tyrosine kinase, wild type (from UniProt P29317)", "values": [
      {"measurement": "binding", "setting": "[9]", "value": "binds"},
      {"measurement": "binding", "setting": "[10]", "value": "binds"},
      {"measurement": "binding", "setting": "[11]", "value": "binds"},
      {"measurement": "binding", "setting": "[12]", "value": "binds"},
      {"measurement": "binding", "setting": "[13]", "value": "binds"},
      {"measurement": "binding", "setting": "[14]", "value": "binds"}
    ]},
    {"molecule": "monomeric ephrin-A1 (from UniProt P20827 19-182) (ligand)", "values": [
      {"measurement": "binding", "setting": "[4]", "value": "binds"}
    ]},
    {"molecule": "B1", "values": [
      {"measurement": "binding", "setting": "[15]", "value": "no binding"}
    ]}
  ]
}
